According to PubChem BioAssay AID1259354 (Paczesny and Yang Labs, IUPUI and University of Michigan, 2018):
The whole screen tested about 78,000 compounds, of which about 1,800 (2.3%) were called active. Inconclusive means that the source gave no clear call. Such entries were picked first, then a sample of the others. Rule as the data show it: active = inhibition above about 30%; inconclusive = mostly about 10% to 28%; inactive = weaker than that.

The chains behind the UniProt entries cited, without tags or fusion partners. Where a name states a change or a piece, a line headed by the entry shows the natural chain unless it says otherwise.
UniProt Q01638: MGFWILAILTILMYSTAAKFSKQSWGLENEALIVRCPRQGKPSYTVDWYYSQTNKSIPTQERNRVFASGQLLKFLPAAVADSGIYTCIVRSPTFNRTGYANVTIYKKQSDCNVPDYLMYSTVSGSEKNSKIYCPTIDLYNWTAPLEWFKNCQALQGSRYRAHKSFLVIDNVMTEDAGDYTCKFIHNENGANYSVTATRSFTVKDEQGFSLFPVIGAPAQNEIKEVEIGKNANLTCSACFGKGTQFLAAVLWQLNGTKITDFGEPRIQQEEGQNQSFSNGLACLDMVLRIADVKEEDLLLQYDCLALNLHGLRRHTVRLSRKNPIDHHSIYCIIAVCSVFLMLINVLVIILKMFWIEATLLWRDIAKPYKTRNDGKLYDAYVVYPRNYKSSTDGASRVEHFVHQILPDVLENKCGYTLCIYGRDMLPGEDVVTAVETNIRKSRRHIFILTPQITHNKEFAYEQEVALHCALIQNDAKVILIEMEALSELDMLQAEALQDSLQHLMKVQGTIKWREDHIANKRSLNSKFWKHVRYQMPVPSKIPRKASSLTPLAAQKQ

target: Interleukin-1 receptor-like 1 (Homo sapiens) (UniProt Q01638); experiment: blocks human ST2 binding to IL-33, primary screen, biochemical, AlphaLISA (AID 1259354); conditions: AlphaLISA ST2-Fc/biotin-IL-33 interaction, 1 h; at 17 µM, stronger effect = higher value

Q: For `CSCC[C@@H](C(=O)Nc1ccc(C(C)=O)cc1)N1Cc2ccccc2C1=O`, which inhibition is on record?
A: inactive

Q: For `Cc1cccc(OCCCn2ccnc2)c1C`, which inhibition is on record?
A: inconclusive: 12%

Q: For `Cc1noc(C)c1CCC(=O)NC1CC(=O)N(C2CCCCCC2)C1` (stereo unspecified), which inhibition is on record?
A: inconclusive: 13%

Q: For `Cc1cnc2c(C(=O)N(C)Cc3cc(C4CC4)n[nH]3)cnn2c1`, which inhibition is on record?
A: inconclusive: 20%

Q: How did the inhibition turn out when `Cc1c(-c2ccccc2)sc(N)c1C#N` was run?
A: active: 33%

Q: `Cc1cccc(C2=N/C(=C\c3cccc(F)c3)C(=O)O2)c1` was tested. Which inhibition did it give?
A: inconclusive: 22%

Q: With `Cn1cc(CN2CCC(n3nccc3NC(=O)C3CC3)CC2)c(-c2ccccc2)n1` as the molecule, how does the inhibition read?
A: inconclusive: 16%

Q: `O=C(Nc1ccc(Br)c2cccnc12)c1ccccc1[N+](=O)[O-]` was tested. Which inhibition did it give?
A: inconclusive: 29%

Q: How did the inhibition turn out when `COc1cccc(NC(=O)N[C@H]2[C@H](O)[C@@H](N(C)CCc3ccccn3)[C@@H]3OC[C@H]2O3)c1` was run?
A: inconclusive: 26%

Q: How did the inhibition turn out when `Cc1ccc(C(=O)Nc2ccc(N3CCCC3)cc2)cc1Cl` was run?
A: active: 53%

Q: For `CN(C/C=C/c1ccccc1)Cc1ncccc1C(=O)O`, which inhibition is on record?
A: inconclusive: 10%

Q: How did the inhibition turn out when `Brc1ccc(C2=CC(c3ccc(Br)cc3)n3nnnc3N2)cc1` (stereo unspecified) was run?
A: inconclusive: 13%

Q: With `COc1ccccc1NC(=O)CCN1CCC(C(N)=O)CC1` as the molecule, how does the inhibition read?
A: inactive

Q: How did the inhibition turn out when `Cc1cc(C)cc(NC(=O)CSc2nnc(Cc3cc(=O)[nH]c(=O)[nH]3)n2-c2ccccc2)c1` was run?
A: inconclusive: 19%

Q: `CSCc1ccc(C(=O)N(C)Cc2cc(C(C)C)on2)o1` was tested. Which inhibition did it give?
A: inconclusive: 14%

Q: Which inhibition does the source give for `O=C1C=C(c2ccccc2)C[C@H](c2cccc([N+](=O)[O-])c2)[C@H]1n1cnc([N+](=O)[O-])n1` here?
A: inconclusive: 23%

Q: How did the inhibition turn out when `CCN(CC)CC(=O)N1CCCc2c1c(=O)oc1ccc(OCc3ccccc3)cc21` was run?
A: inconclusive: 16%

Q: Which inhibition does the source give for `COc1ccc(-c2csc(/C(C#N)=C\c3ccc(F)cc3)n2)cc1` here?
A: inconclusive: 29%

Q: `O=Cc1c(Sc2ccc(Cl)cc2)nc2ccccn2c1=O` was tested. Which inhibition did it give?
A: inconclusive: 20%

Q: `CSc1ncc(CN2CCN(Cc3ccccc3C)C(CCO)C2)cn1` (stereo unspecified) was tested. Which inhibition did it give?
A: inconclusive: 12%

Q: For `CCNC(=O)c1c(NC(=O)c2ccccc2Br)sc2c1CCCC2`, which inhibition is on record?
A: inconclusive: 14%

Q: With `CN(C(=O)CCCOc1ccc2[nH]c(=O)ccc2c1)C1CCCCC1` as the molecule, how does the inhibition read?
A: inconclusive: 11%

Q: With `Cn1c(=O)c2c(nc(N3CCOCC3)n2CC(=O)c2ccc(Cl)cc2)n(C)c1=O` as the molecule, how does the inhibition read?
A: inconclusive: 13%

Q: How did the inhibition turn out when `COCCNc1ccc(C(=O)N2CCCC(c3ccccc3)CC2)cn1` (stereo unspecified) was run?
A: inactive

Q: For `O=C(NC(c1ccco1)C(F)(F)F)c1coc(Cn2cnc3ccccc32)n1` (stereo unspecified), which inhibition is on record?
A: inactive

Q: Which inhibition does the source give for `CC1(C)Cc2c(c(-c3ccccc3)nc(N3CCCC3)c2C(N)=O)CO1` here?
A: inconclusive: 13%
